Test results from paper PMC12670160, “A drug-repurposing screen of FDA- and EMA-approved drugs identifies two NF-κB inhibitors active against eumycetoma” (Journal of Antimicrobial Chemotherapy, 2025).
Where a name gives a salt, the structure may show the parent alone. Read-outs that look alike come from different tables or passages of the source. Hit rate of the full screen: of about 5,300 compounds, about 130 (2.5%) showed an effect of 50% or more. The list shows a part of the results. Bridge positions count the residues as written; N and C are the ends. Square brackets hold non-standard residues; d marks the D form. Peptide text beside a SMILES is read from it. * marks the point of attachment. dPhe(4-NHCONH2) = NC(=O)Nc1ccc(C[C@@H](N)C(=O)O)cc1; Dihydroorotyl(S) = O=C1C[C@@H](C(=O)*)NC(=O)N1; dPhe(4-Cl) = N[C@H](Cc1ccc(Cl)cc1)C(=O)O; Phe(4-NH2) = Nc1ccc(C[C@H](N)C(=O)O)cc1; d2Nal = N[C@H](Cc1ccc2ccccc2c1)C(=O)O; Lys(iPr) = CC(C)NCCCC[C@H](N)C(=O)O; d3Pal = N[C@H](Cc1cccnc1)C(=O)O

Test system: M. mycetomatis strain mm55
Settings: primary screen, metabolic activity vs growth control, 96 h, 2 µM, inhibitor

Structure (SMILES)	% viability	% viability (Madurella mycetomatis metabolic activity at 2µM (%))
COc1ccccc1CC(=N)N1C[C@@H]2C(=O)CCC(c3ccccc3)(c3ccccc3)[C@@H]2C1 [ONC0001413, rp67580]	48.12%	
CCCCCCCCCCCCCCOS(=O)(=O)O [ONC0003317, sodium tetradecyl sulfate]	84.61%	
NS(=O)(=O)c1cc2c(cc1Cl)N=CNS2(=O)=O [ONC0000783, chlorothiazide]	66.41%	
CCCn1c(=O)[nH]c2nc(-c3ccc(S(=O)(=O)N4CCN(c5ccc(Cl)cc5)CC4)cc3)[nH]c2c1=O [ONC0004463, psb603]	98.11%	
COc1cc2c(cc1OC(C)C)[C@H](c1ccc(Cl)cc1)N(c1ccc(N(C)C[C@H]3CC[C@H](N4CCN(C)C(=O)C4)CC3)cc1)C(=O)C2 [ONC0002106, nvpcgm097]	64.38%	
NCC(=O)Nc1ccc(-n2nc(C(F)(F)F)cc2-c2ccc3c(ccc4ccccc43)c2)cc1 [ONC0002577, ar12]	66.96%	
CNC(=O)c1ccc2cc([C@]3(O)CCn4cncc43)ccc2c1 [ONC0004670, tak700 orteronel]	115.9%	
CNC(=O)c1ccccc1Nc1nc(Nc2ccc3c(c2OC)CCC[C@H](N2CCN(CCO)CC2)C3)ncc1Cl [ONC0005621, cep37440]	62.01%	
CN[C@H]1CN(c2ccc3c(=O)c(C(=O)O)cn(-c4nccs4)c3n2)C[C@@H]1OC [ONC0001301, voreloxin hydrochloride]	85.22%	
COc1cc(C(=O)NS(=O)(=O)c2ccccc2C)ccc1Cc1cn(C)c2ccc(NC(=O)OC3CCCC3)cc12 [ONC0005016, zafirlukast accolate]	51.79%	
CC(=O)N[C@H](Cc1ccc2ccccc2c1)C(=O)N[C@H](Cc1ccc(Cl)cc1)C(=O)N[C@H](Cc1cccnc1)C(=O)N[C@@H](CO)C(=O)N[C@@H](Cc1ccc(NC(=O)[C@@H]2CC(=O)NC(=O)N2)cc1)C(=O)N[C@H](Cc1ccc(NC(N)=O)cc1)C(=O)N[C@@H](CC(C)C)C(=O)N[C@@H](CCCCNC(C)C)C(=O)N1CCC[C@H]1C(=O)N[C@H](C)C(N)=O [ONC0002214, degarelix] (Ac-[d2Nal][dPhe(4-Cl)][d3Pal]S[Phe(4-NH2)](Dihydroorotyl(S))[dPhe(4-NHCONH2)]L[Lys(iPr)]P[dA]-NH2)	83.96%	
Cl[C@H]1[C@H](Cl)[C@@H](Cl)[C@@H](Cl)[C@H](Cl)[C@H]1Cl [ONC0003293, lindane]	102.8%	
Cc1cc(C2CCCCC2)n(O)c(=O)c1 [ONC0000294, ciclopirox olamine]	81.14%	
CCS(=O)(=O)N(C)[C@H]1c2cc(C#N)ccc2OC(C)(C)[C@@H]1O [ONC0002693, chromanol293b3r4s]	103.9%	
CC1=C(C(=O)OC(C)C)C(c2cccc([N+](=O)[O-])c2)C(C(=O)OC2CN(C(c3ccccc3)c3ccccc3)C2)=C(N)N1 (stereo not shown) [ONC0004340, azelnidipine]	111.6%	
COc1cc([S+](C)[O-])ccc1-c1nc2ncccc2[nH]1 (stereo not shown) [ONC0002956, sulmazole]	88.35%	
CCCCCCCCCCCCC/C=C/[C@@H](O)[C@H](CO)NC(C)=O [ONC0004279, ceramide]	73.48%	
CC[C@]1(O)C[C@H]2CN(CCc3c([nH]c4ccccc34)[C@@](C(=O)OC)(c3cc4c(cc3OC)N(C)[C@H]3[C@@](O)(C(N)=O)[C@H](O)[C@]5(CC)C=CCN6CC[C@]43[C@@H]65)C2)C1 [ONC0000288, vindesine sulfate]	94.86%	
CCOc1cc([C@@H](CS(C)(=O)=O)N2C(=O)c3cccc(NC(C)=O)c3C2=O)ccc1OC [ONC0004381, apremilast cc10004 apremilast cc10004]	94.27%	
NCCCC[C@H](NC(=O)[C@@H]1CCCN1C(=O)[C@@H]1CSSC[C@H](NC(=O)CNC(=O)CNC(=O)CN)C(=O)N[C@@H](Cc2ccc(O)cc2)C(=O)N[C@@H](Cc2ccccc2)C(=O)N[C@@H](CCC(N)=O)C(=O)N[C@@H](CC(N)=O)C(=O)N1)C(=O)NCC(N)=O [ONC0001913, terlipressin] (H-GGGCYFQNCPKG-NH2; disulfide 4-9)	80.65%	
Cc1ccc2c(c1)C1(CCN(CCc3nc(-c4ccccc4)oc3C)CC1)OC(=O)N2 [ONC0001392, rs504393]	80.78%	
Oc1ccc(Cl)cc1Cc1cc(Cl)ccc1O [ONC0003308, dichlorophen]	84.57%	
CCC(CC)C(c1ccc(Nc2nc3ccccc3s2)cc1)n1cncn1 (stereo not shown) [ONC0001358, talarozole]	86.45%	
Oc1cc(O)c2cc(O)c(-c3cc(O)c(O)c(O)c3)[o+]c2c1 [ONC0003804, delphinidin]	67%	
O=C(O)c1cc(=O)c2ccccc2o1 [ONC0003089, chromocarb]	84.15%	
CCCn1c(=O)c2[nH]c(-c3cnn(Cc4cccc(C(F)(F)F)c4)c3)nc2n(CC)c1=O [ONC0001389, gs6201]	85.49%	
Fc1ccc(-c2nc(-c3c(F)cccc3F)[nH]c2-c2ccncc2)cc1 [ONC0000887, ta01]	46.48%	
CC(C)(C)c1ccc(C(=O)Nc2cn3cc(-n4ccnc4)ccc3n2)cc1 [ONC0000079, tcask10]	88.09%	

Part of the list above in order of length of the SMILES, ascending.
Structure (SMILES)	% viability	% viability (Madurella mycetomatis metabolic activity at 2µM (%))
O=C(O)c1cc(=O)c2ccccc2o1 [ONC0003089, chromocarb]	84.15%	
CCCCCCCCCCCCC/C=C/[C@@H](O)[C@H](CO)NC(C)=O [ONC0004279, ceramide]	73.48%	
Fc1ccc(-c2nc(-c3c(F)cccc3F)[nH]c2-c2ccncc2)cc1 [ONC0000887, ta01]	46.48%	

The listing continues.

Structure (SMILES)	% viability	% viability (Madurella mycetomatis metabolic activity at 2µM (%))
O=C(O)CN(CCN(CC(=O)O)CC(=O)O)CCN(CC(=O)O)CC(=O)O [ONC0005432, gadopenteticacid]		103.1%
Nc1ncnc(Nc2ccc(Cl)cc2)n1 [ONC0002378, chlorazanil hydrochloride]	73.92%	
Cc1csc(S(=O)(=O)N(CC(C)C)c2cc3c(cc2OCc2ccc(C(=O)O)cc2)CCC3)n1 [ONC0003040, ono8130]	89.59%	
O=C(OC(C(F)(F)F)C(F)(F)F)N1CCC(C(O)(c2ccc3c(c2)OCO3)c2ccc3c(c2)OCO3)CC1 [ONC0001048, kml29]	83.75%	
C[C@@H]1NC(=O)NC1=O [ONC0003683]	85.47%	
CC(C)c1cccc2c1OC(C(C)C)C(=S)N2CC(=O)O (stereo not shown) [ONC0002963, 228diisopropyl3thioxo23dihydro4h14benzoxazin4ylacetic acid]	79.38%	
c1ccc2sc(SNC3CCCCC3)nc2c1 [ONC0003426, cbs ncyclohexyl2benzothiazolesulfenamide]	87.95%	
C[C@H](NC(=O)CNC(=O)c1cccc(Cl)c1)c1ccccc1 [ONC0001233, jnj63533054]	74.74%	
Cc1cccc(N2CC(CO)OC2=O)c1 (stereo not shown) [ONC0005385, toloxatone]	91.79%	
CC(=O)[C@@]12OC(C)(c3ccccc3)O[C@@H]1C[C@H]1[C@@H]3CCC4=CC(=O)CC[C@]4(C)[C@H]3CC[C@@]12C (stereo partly shown) [ONC0002369, algestoneacetophenide]	99.76%	
Cc1c(C(=O)NCCCO)cnn1-c1nc(-c2cccc(C(F)(F)F)c2)cs1 [ONC0001569, rwj50271]	88.88%	
CCN(CCO)CCCOc1ccc2c(Nc3cc(CC(=O)Nc4cccc(F)c4)[nH]n3)ncnc2c1 [ONC0004662, barasertib azd1152hqpa]	61.77%	
CC(=O)NC[C@H]1CN(c2ccc(N3CCN(C(=O)CO)CC3)c(F)c2)C(=O)O1 [ONC0000899, eperezolid]	53.13%	
C=CC(=O)N1CCC(Oc2cc3c(Nc4ccc(Cl)c(Cl)c4F)ncnc3cc2OC)CC1 [ONC0005175, poziotinib hm78136b]	136.1%	
Cc1c(Cc2ccc3ccccc3n2)c2cc(F)ccc2n1CC(=O)O [ONC0005065, oc000459]	61.99%	
CCCCCCCCCCCCCCCC(=O)OC(CC(=O)O)C[N+](C)(C)C (stereo not shown) [ONC0000226, palmitoylcarnitine]	67.54%	
CCCCCCCCCCCCCCCC(=O)NCCO [ONC0005345, palmidrol 5mm]	120.7%	
N[C@H](Cc1c[nH]cn1)C(=O)O [ONC0001939, dhistidine]	75.44%	
CO[C@H]1O[C@@H]2O[C@@]3(C)CC[C@H]4[C@H](C)CC[C@@H]([C@H]1C)[C@@]24OO3 [ONC0000961, artemether]	58.3%	
Cc1ccc(/C=C2/C(=O)C3(C)CCC2C3(C)C)cc1 (stereo not shown) [ONC0003679, 34methylbenzylidenecamphor]	81.67%	
CC(C)(C)c1cc(C(=O)/C(C#N)=N/Nc2cccc(Cl)c2)no1 [ONC0001420, esi09]	55.71%	
O=c1c2ccccc2oc2ccccc12 [ONC0004769, xanthone genicide]	107.4%	
N#Cc1ccc(N(Cc2ccc(Br)cc2)n2cnnc2)cc1 [ONC0001601, ym511]	78.87%	
CC(C)(C)C(=O)NCCCC(=O)O [ONC0003709, pivagabine]	93.84%	
CCOc1ccc2nc(SCCN3CCOCC3)[nH]c2c1 [ONC0001849, fabomotizole hydrochloride]	108.3%	
Cn1ncc(Cl)c1-c1cc(C(=O)N[C@H](CN)Cc2cccc(F)c2)sc1Cl [ONC0002035, afuresertib]	61.08%	
CS(=O)(=O)n1cc2c(n1)CN([C@H]1CO[C@H](c3cc(F)ccc3F)[C@@H](N)C1)C2 [ONC0001802, omarigliptin]	89.74%	
